Experimental data as given in the supplement of paper PMC8728848.
The list shows a part of the results.

Experiments:
Assay in all cases: glycan array binding signal (z-score within array); higher = stronger binding
Details in all cases: glycan notation: IUPAC condensed, linker removed
[1] = target: Gal(b1-4)GlcNAc(b1-3)Gal(b1-4)GlcNAc(b1-2)[Gal(b1-4)GlcNAc(b1-3)Gal(b1-4)GlcNAc(b1-6)]Man(a1-6)[Gal(b1-4)GlcNAc(b1-3)Gal(b1-4)GlcNAc(b1-2)Man(a1-3)]Man(b1-4)GlcNAc(b1-4)GlcNAc
In short: (§1)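 Negative Z-scores can be read as non-binding. The Z-score is calculated within each array and then averaged across arrays of one protein sequence at different concentrations or buffers and across linkers. Arrays, 3228 in all, were curated from the Consortium for Functional Glycomics database and kept only where the protein sequence was available.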

[2] = target: Gal(b1-4)GlcNAc(b1-3)Gal(b1-4)GlcNAc(b1-2)[Gal(b1-4)GlcNAc(b1-3)Gal(b1-4)GlcNAc(b1-6)]Man(a1-6)[Gal(b1-4)GlcNAc(b1-3)Gal(b1-4)GlcNAc(b1-2)Man(a1-3)]Man(b1-4)GlcNAc(b1-4)[Fuc(a1-6)]GlcNAc
In short: as §1

[3] = target: Gal(b1-4)GlcNAc(b1-3)Gal(b1-4)GlcNAc(b1-3)Gal(b1-4)GlcNAc
In short: as §1

[4] = target: Gal(b1-4)GlcNAc(b1-3)Gal(b1-4)GlcNAc(b1-3)Gal(b1-4)GlcNAc(b1-2)Man(a1-3)[Gal(b1-4)GlcNAc(b1-3)Gal(b1-4)GlcNAc(b1-3)Gal(b1-4)GlcNAc(b1-2)Man(a1-6)]Man(b1-4)GlcNAc(b1-4)GlcNAc
In short: as §1

[5] = target: Gal(b1-4)GlcNAc(b1-3)Gal(b1-4)GlcNAc(b1-3)Gal(b1-4)GlcNAc(b1-2)Man(a1-3)[Gal(b1-4)GlcNAc(b1-3)Gal(b1-4)GlcNAc(b1-3)Gal(b1-4)GlcNAc(b1-2)Man(a1-6)]Man(b1-4)GlcNAc(b1-4)[Fuc(a1-6)]GlcNAc
In short: as §1

[6] = target: Gal(b1-4)GlcNAc(b1-3)Gal(b1-4)GlcNAc(b1-3)Gal(b1-4)GlcNAc(b1-2)[Gal(b1-4)GlcNAc(b1-3)Gal(b1-4)GlcNAc(b1-3)Gal(b1-4)GlcNAc(b1-6)]Man(a1-6)[Gal(b1-4)GlcNAc(b1-3)Gal(b1-4)GlcNAc(b1-3)Gal(b1-4)GlcNAc(b1-2)Man(a1-3)]Man(b1-4)GlcNAc(b1-4)[Fuc(a1-6)]GlcNAc
In short: as §1

[7] = target: Gal(b1-4)GlcNAc(b1-3)Gal(b1-4)GlcNAc(b1-3)Gal(b1-4)GlcNAc(b1-3)Gal(b1-4)GlcNAc(b1-2)Man(a1-3)[Gal(b1-4)GlcNAc(b1-3)Gal(b1-4)GlcNAc(b1-3)Gal(b1-4)GlcNAc(b1-3)Gal(b1-4)GlcNAc(b1-2)Man(a1-6)]Man(b1-4)GlcNAc(b1-4)GlcNAc
In short: as §1

[8] = target: Gal(b1-4)GlcNAc(b1-3)Gal(b1-4)GlcNAc(b1-3)Gal(b1-4)GlcNAc(b1-3)Gal(b1-4)GlcNAc(b1-2)Man(a1-3)[Gal(b1-4)GlcNAc(b1-3)Gal(b1-4)GlcNAc(b1-3)Gal(b1-4)GlcNAc(b1-3)Gal(b1-4)GlcNAc(b1-2)Man(a1-6)]Man(b1-4)GlcNAc(b1-4)[Fuc(a1-6)]GlcNAc
In short: as §1

[9] = target: Gal(b1-4)GlcNAc(b1-3)Gal(b1-4)GlcNAc(b1-3)Gal(b1-4)GlcNAc(b1-3)Gal(b1-4)GlcNAc(b1-2)[Gal(b1-4)GlcNAc(b1-3)Gal(b1-4)GlcNAc(b1-3)Gal(b1-4)GlcNAc(b1-3)Gal(b1-4)GlcNAc(b1-6)]Man(a1-6)[Gal(b1-4)GlcNAc(b1-3)Gal(b1-4)GlcNAc(b1-3)Gal(b1-4)GlcNAc(b1-3)Gal(b1-4)GlcNAc(b1-2)Man(a1-3)]Man(b1-4)GlcNAc(b1-4)[Fuc(a1-6)]GlcNAc
In short: as §1

[10] = target: Gal(b1-4)GlcNAc(b1-3)Gal(b1-4)GlcNAc(b1-3)Gal(b1-4)GlcNAc(b1-3)Gal(b1-4)GlcNAc(b1-3)Gal(b1-4)GlcNAc(b1-2)Man(a1-3)[Gal(b1-4)GlcNAc(b1-3)Gal(b1-4)GlcNAc(b1-3)Gal(b1-4)GlcNAc(b1-3)Gal(b1-4)GlcNAc(b1-3)Gal(b1-4)GlcNAc(b1-2)Man(a1-6)]Man(b1-4)GlcNAc(b1-4)GlcNAc
In short: as §1

[11] = target: Gal(b1-4)GlcNAc(b1-3)Gal(b1-4)GlcNAc(b1-3)Gal(b1-4)GlcNAc(b1-3)Gal(b1-4)GlcNAc(b1-3)Gal(b1-4)GlcNAc(b1-2)Man(a1-3)[Gal(b1-4)GlcNAc(b1-3)Gal(b1-4)GlcNAc(b1-3)Gal(b1-4)GlcNAc(b1-3)Gal(b1-4)GlcNAc(b1-3)Gal(b1-4)GlcNAc(b1-2)Man(a1-6)]Man(b1-4)GlcNAc(b1-4)[Fuc(a1-6)]GlcNAc
In short: as §1

[12] = target: Gal(b1-4)GlcNAc(b1-3)Gal(b1-4)GlcNAc(b1-3)Gal(b1-4)GlcNAc(b1-3)Gal(b1-4)GlcNAc(b1-3)Gal(b1-4)GlcNAc(b1-2)[Gal(b1-4)GlcNAc(b1-3)Gal(b1-4)GlcNAc(b1-3)Gal(b1-4)GlcNAc(b1-3)Gal(b1-4)GlcNAc(b1-3)Gal(b1-4)GlcNAc(b1-6)]Man(a1-6)[Gal(b1-4)GlcNAc(b1-3)Gal(b1-4)GlcNAc(b1-3)Gal(b1-4)GlcNAc(b1-3)Gal(b1-4)GlcNAc(b1-3)Gal(b1-4)GlcNAc(b1-2)Man(a1-3)]Man(b1-4)GlcNAc(b1-4)[Fuc(a1-6)]GlcNAc
In short: as §1

[13] = target: Gal(b1-4)GlcNAc(b1-3)Gal(b1-4)GlcNAc(b1-3)Gal(b1-4)GlcNAc(b1-3)Gal(b1-4)GlcNAc(b1-3)Gal(b1-4)GlcNAc(b1-3)Gal(b1-4)GlcNAc(b1-2)Man(a1-3)[Gal(b1-4)GlcNAc(b1-3)Gal(b1-4)GlcNAc(b1-3)Gal(b1-4)GlcNAc(b1-3)Gal(b1-4)GlcNAc(b1-3)Gal(b1-4)GlcNAc(b1-3)Gal(b1-4)GlcNAc(b1-2)Man(a1-6)]Man(b1-4)GlcNAc(b1-4)GlcNAc
In short: as §1

[14] = target: Gal(b1-4)GlcNAc(b1-3)Gal(b1-4)GlcNAc(b1-3)GalNAc
In short: as §1

[15] = target: Gal(b1-4)GlcNAc(b1-3)Gal(b1-4)GlcNAc(b1-3)[Gal(b1-4)GlcNAc(b1-3)Gal(b1-4)GlcNAc(b1-6)]GalNAc
In short: as §1

[16] = target: Gal(b1-4)GlcNAc(b1-3)Gal(b1-4)GlcNAc(b1-6)[Gal(b1-3)]GalNAc
In short: as §1

[17] = target: Gal(b1-4)GlcNAc(b1-3)Gal(b1-4)[Fuc(a1-3)]GlcNAc(b1-3)Gal(b1-4)[Fuc(a1-3)]GlcNAc
In short: as §1

[18] = target: Gal(b1-4)GlcNAc(b1-3)GalNAc
In short: as §1

[19] = target: Gal(b1-4)GlcNAc(b1-3)[Fuc(a1-3)GlcNAc(b1-6)]Gal(b1-4)Glc
In short: as §1

[20] = target: Gal(b1-4)GlcNAc(b1-3)[Gal(b1-4)GlcNAc(b1-6)]Gal(b1-4)GlcNAc
In short: as §1

[21] = target: Gal(b1-4)GlcNAc(b1-3)[GlcNAc(b1-6)]Gal(b1-4)GlcNAc
In short: as §1

[22] = target: Gal(b1-4)GlcNAc(b1-6)Gal(b1-4)GlcNAc
In short: as §1

B1: Awp3 (Candida glabrata), B4UN32 (protein)
chain: MISFVTLLAILGLLSISWADQTVRSVAGDQRVTDPVIVGDNSILDYYGGSNYDFSNNFEIGRGTLYIGKESYFSSFQSAPTDVPNSFHLLIKNTNNLQNNGQFIIENIKRHANQCSNSSIQVFPINFQNDGEFEIISGGVEGRCCLPTSVIAPQNFLNNGKFYYKVLTDTGSIYSGSCMQNVDIGASTTTTVNNNLWEFTGSINAQINGAVSGAAQINLDGSNMFVNANTFSGQVVNLINGGSFLQTSDPLSNIVVINGLGTSDTGVTSIAVKGKGKSFTYNPSSGIVKLTTVEGKTYAYQIGCGYNTKKFITNNDSGASYESADNFFVLTYSEPYSPQTCQLENSSIFSSNFISTSTSSSSSSSSASSLPSSMSSSLPSSLSSSLSSSLSSSMSSSMSSLFIIPPPYTTTRSSGSSIIDTEIVSFYSTTDSPGHTITGTTTTTLYGPHTHSSVSTPSSSSESSTTSNSSIESSSLPHTSVSSTPESSITPSSNTISSSPTSDFSSVQSSSIMESSSVVASSSVINSSSIVDSSSSSASSLPSSMSSSLSSSMSSSLPSSMSSSLSSSLSSSLSSSMSSSMSSLFIIPPPYTTTRSSGSSIIDTEIVSFYSTTDSPGHTITGTTTTTLYGPHTHSSVSTPSSSSESSTTSNSSIESSSLPHTSVSSTPESSITPSSNTISSSPTSDFSSVQSSSIMESSSVVASSSVINSSSIVDSSSSSASSLPSSMPSSLPSSMSSSLSSSMSSSLSSSLSSSLSSSMSSSMSSLFIIPPPYTTTRSSGSSIIDTEIVSFYSTTDSPGHTITGTTTTTLYGPHTHSSVSTPSSSSESSTTSNSSIESSSLPHTSVSSTPESSITPSSNTISSSPTSDFSSVQSSSIMESSSVVASSSATQSSSVINSSSIVDSSSSSASSLPSSMPSSLPSSLSSSLSSSLSSSMSSSMSSLFIIPPPYTTTRSSGSSIIDTEIVSFYSTTDSPGHTITGTTTTTLYESSIYSSSSSTIQESELSNTSRTTMTSNSSVSISSTSSRSSFSNTKSSTIVISQSASLPDSKTDIILSTSSNIGYSSRSLLSDLGTSISDSDIHHSVLHSTESYSSNESGTNPFTSIASLSNFIPESSSHTSTALGSENSVISSDILTTMSHPVATNSGDKPTTPKRSEQVSTTMTSSGPTPDTSSFDTDGMSAYSRPEFTTNSLEVNKSSTSQLGNNKQTFSNLQLESTRPHSENEVDNNTRLLQSIQQSSTYGTNNVNPLSPTGSISIPLTEDGQGDNNNWNSPATNDLCTQISFNLTATTITVTDRITITDSIHDISSEVITSYIYQTIVDQKTVTQTVDGKSLANKMSSIPKPSSRSLIQPQPPVAIELQEGAASTSRVSLVSLFISIILVLL
glycan array binding signal (z-score) [1]: 1.76
glycan array binding signal (z-score) [2]: -1.19
glycan array binding signal (z-score) [3]: 0.124
glycan array binding signal (z-score) [4]: 0.958
glycan array binding signal (z-score) [5]: 0.842
glycan array binding signal (z-score) [6]: 1.96
glycan array binding signal (z-score) [7]: -0.476
glycan array binding signal (z-score) [8]: 0.582
glycan array binding signal (z-score) [9]: 0.977
glycan array binding signal (z-score) [10]: -0.487
glycan array binding signal (z-score) [11]: 0.113
glycan array binding signal (z-score) [12]: -0.313
glycan array binding signal (z-score) [13]: 0.362
glycan array binding signal (z-score) [14]: 1.03
glycan array binding signal (z-score) [15]: 2.16
glycan array binding signal (z-score) [16]: -0.292
glycan array binding signal (z-score) [17]: 0.452
glycan array binding signal (z-score) [18]: -0.074
glycan array binding signal (z-score) [19]: -0.665
glycan array binding signal (z-score) [20]: -0.796
glycan array binding signal (z-score) [21]: -1.1
glycan array binding signal (z-score) [22]: -0.013
